Assay results as given in patent US20050222012A1.
No constants are given. Whether binding was seen depends on the method and setting. Some entries that bind do so weakly or less than the wild type.

Key:
[1] = target: T1, Biotinylated AF9, C-terminal 368 aa of human AF9 made by coupled in vitro transcription and translation (human) (UniProt P42568); assay: in vitro competition assays against GST-AF4(749-775)
T1 sequence (chain, Biotinylated (positions not stated)): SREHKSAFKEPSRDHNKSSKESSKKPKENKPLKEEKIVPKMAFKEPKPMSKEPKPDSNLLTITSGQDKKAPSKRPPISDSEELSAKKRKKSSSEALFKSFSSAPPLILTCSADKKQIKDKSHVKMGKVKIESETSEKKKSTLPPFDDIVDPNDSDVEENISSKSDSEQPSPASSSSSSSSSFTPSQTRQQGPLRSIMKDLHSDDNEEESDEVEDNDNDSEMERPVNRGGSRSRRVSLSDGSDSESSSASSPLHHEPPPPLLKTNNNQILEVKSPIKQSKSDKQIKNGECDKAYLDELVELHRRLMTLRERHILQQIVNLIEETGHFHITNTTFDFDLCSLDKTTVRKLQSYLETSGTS

[2] = target: T1, Biotinylated AF9, C-terminal 368 aa of human AF9 made by coupled in vitro transcription and translation (human); assay: FIG. 2A legend, competition for AF9 against GST-AF4
[3] = target: T1, Biotinylated AF9, C-terminal 368 aa of human AF9 made by coupled in vitro transcription and translation (human); assay: FIG. 2B legend, competition for AF9 against GST-AF4
[4] = target: T1, Biotinylated AF9, C-terminal 368 aa of human AF9 made by coupled in vitro transcription and translation (human); assay: enzyme-linked competition assay, 20 µg/ml peptide, AF9 on plate-bound GST-AF4(749-775)
[5] = target: T1, Biotinylated AF9, C-terminal 368 aa of human AF9 made by coupled in vitro transcription and translation (human); assay: GST pull-down competition against GST-AF4(749-775)

Measured: binding

RQIKWFQNRRMKWKKLWVKIDLDLLSRVP
binds: all assays above

LWVKIDLDLLSR [… (Leu-Trp-Val-Lys-Ile-Asp-Leu-Asp-Leu-Leu-Ser-Arg)]
binds: [2] | [4]

LWVKIDLDLL [… (Leu-Trp-Val-Lys-Ile-Asp-Leu-Asp-Leu-Leu)]
binds: [2] | [4]
